# Laboratory results published in the supplement of paper PMC11438910.
# The other results are listed elsewhere or left out. Only a few entries rise above the background.
# What was measured:
# Assay in all cases: fluorescence intensity of antibody binding to polysaccharide-coupled beads; higher = stronger binding
# [1] = target: pneumococcal polysaccharide C-Poly-1
# [2] = target: pneumococcal polysaccharide C-Poly-2
# [3] = target: pneumococcal polysaccharide Pn1
# [4] = target: pneumococcal polysaccharide Pn10A
# [5] = target: pneumococcal polysaccharide Pn10B
# [6] = target: pneumococcal polysaccharide Pn10C
# [7] = target: pneumococcal polysaccharide Pn10F
# [8] = target: pneumococcal polysaccharide Pn11A
# [9] = target: pneumococcal polysaccharide Pn11B
# [10] = target: pneumococcal polysaccharide Pn11C
# [11] = target: pneumococcal polysaccharide Pn11D
# [12] = target: pneumococcal polysaccharide Pn11F
# [13] = target: pneumococcal polysaccharide Pn7A
# [14] = target: pneumococcal polysaccharide Pn7B
# [15] = target: pneumococcal polysaccharide Pn7C
# [16] = target: pneumococcal polysaccharide Pn7F
# [17] = target: pneumococcal polysaccharide Pn8
# [18] = target: pneumococcal polysaccharide Pn9A
# [19] = target: pneumococcal polysaccharide Pn9L
# [20] = target: pneumococcal polysaccharide Pn9N
# [21] = target: pneumococcal polysaccharide Pn9V
# [22] = antibody concentration 0.1 ng/mL
# [23] = antibody concentration 0.534724 ng/mL
# [24] = antibody concentration 2.8593 ng/mL
# [25] = antibody concentration 15.2894 ng/mL
# [26] = antibody concentration 81.7561 ng/mL
# [27] = antibody concentration 437.17 ng/mL
# [28] = antibody concentration 2337.65 ng/mL
# [29] = antibody concentration 12500 ng/mL
binder,measurement,setting,value
4-127.2 (protein) chain 1: QVQLQESGPGLVKPSETLSLTCAVSGYSVNSGHGWTWIRQSPGKGLEWIGYIGGGSGSSNYNPSLKSRVTISKDTSNNQLSLKLRSLTTADTAMYYCARRVPADRSGNDYWGQGVLVTVSS chain 2: QSVLTQPPSVSGDPGQRVTISCTGSSSNIGDYYGYWYQQFPGTAPKLLIFDDNNRPSGISDRFSGSKAGTSASLTITGLQPGDEADYYCGAWDGSLNAHVFGSGTKLTVL,fluorescence intensity,[1]; [22],24.8 MFI
same,fluorescence intensity,[1]; [23],25.2 MFI
same,fluorescence intensity,[1]; [24],24.8 MFI
same,fluorescence intensity,[1]; [25],25 MFI
same,fluorescence intensity,[1]; [26],26.2 MFI
same,fluorescence intensity,[1]; [27],32.2 MFI
same,fluorescence intensity,[1]; [28],63 MFI
same,fluorescence intensity,[1]; [29],347 MFI
same,fluorescence intensity,[2]; [22],20 MFI
same,fluorescence intensity,[2]; [23],20.5 MFI
same,fluorescence intensity,[2]; [24],21 MFI
same,fluorescence intensity,[2]; [25],20.8 MFI
same,fluorescence intensity,[2]; [26],22 MFI
same,fluorescence intensity,[2]; [27],25.5 MFI
same,fluorescence intensity,[2]; [28],53.8 MFI
same,fluorescence intensity,[2]; [29],290 MFI
same,fluorescence intensity,[3]; [22],13 MFI
same,fluorescence intensity,[3]; [23],13 MFI
same,fluorescence intensity,[3]; [24],12.5 MFI
same,fluorescence intensity,[3]; [25],12.2 MFI
same,fluorescence intensity,[3]; [26],13.5 MFI
same,fluorescence intensity,[3]; [27],15.8 MFI
same,fluorescence intensity,[3]; [28],19.5 MFI
same,fluorescence intensity,[3]; [29],54.8 MFI
same,fluorescence intensity,[4]; [22],24 MFI
same,fluorescence intensity,[4]; [23],26.5 MFI
same,fluorescence intensity,[4]; [24],26 MFI
same,fluorescence intensity,[4]; [25],26 MFI
same,fluorescence intensity,[4]; [26],25.5 MFI
same,fluorescence intensity,[4]; [27],26 MFI
same,fluorescence intensity,[4]; [28],26.5 MFI
same,fluorescence intensity,[4]; [29],51.5 MFI
same,fluorescence intensity,[5]; [22],22 MFI
same,fluorescence intensity,[5]; [23],24 MFI
same,fluorescence intensity,[5]; [24],22.8 MFI
same,fluorescence intensity,[5]; [25],22.5 MFI
same,fluorescence intensity,[5]; [26],23 MFI
same,fluorescence intensity,[5]; [27],24.5 MFI
same,fluorescence intensity,[5]; [28],24.8 MFI
same,fluorescence intensity,[5]; [29],41 MFI
same,fluorescence intensity,[6]; [22],16 MFI
same,fluorescence intensity,[6]; [23],16.5 MFI
same,fluorescence intensity,[6]; [24],16 MFI
same,fluorescence intensity,[6]; [25],17 MFI
same,fluorescence intensity,[6]; [26],16 MFI
same,fluorescence intensity,[6]; [27],16 MFI
same,fluorescence intensity,[6]; [28],17.5 MFI
same,fluorescence intensity,[6]; [29],26 MFI
same,fluorescence intensity,[7]; [22],19.5 MFI
same,fluorescence intensity,[7]; [23],20 MFI
same,fluorescence intensity,[7]; [24],19 MFI
same,fluorescence intensity,[7]; [25],18.5 MFI
same,fluorescence intensity,[7]; [26],19.8 MFI
same,fluorescence intensity,[7]; [27],19.5 MFI
same,fluorescence intensity,[7]; [28],20.5 MFI
same,fluorescence intensity,[7]; [29],22.5 MFI
same,fluorescence intensity,[8]; [22],28.5 MFI
same,fluorescence intensity,[8]; [23],27.5 MFI
same,fluorescence intensity,[8]; [24],27.2 MFI
same,fluorescence intensity,[8]; [25],27 MFI
same,fluorescence intensity,[8]; [26],28.5 MFI
same,fluorescence intensity,[8]; [27],34.2 MFI
same,fluorescence intensity,[8]; [28],33 MFI
same,fluorescence intensity,[8]; [29],42.5 MFI
same,fluorescence intensity,[9]; [22],26 MFI
same,fluorescence intensity,[9]; [23],27 MFI
same,fluorescence intensity,[9]; [24],25.5 MFI
same,fluorescence intensity,[9]; [25],25.5 MFI
same,fluorescence intensity,[9]; [26],25.5 MFI
same,fluorescence intensity,[9]; [27],26.2 MFI
same,fluorescence intensity,[9]; [28],30 MFI
same,fluorescence intensity,[9]; [29],34.5 MFI
same,fluorescence intensity,[10]; [22],21.2 MFI
same,fluorescence intensity,[10]; [23],21.5 MFI
same,fluorescence intensity,[10]; [24],21.5 MFI
same,fluorescence intensity,[10]; [25],22 MFI
same,fluorescence intensity,[10]; [26],23.2 MFI
same,fluorescence intensity,[10]; [27],22.8 MFI
same,fluorescence intensity,[10]; [28],40.8 MFI
same,fluorescence intensity,[10]; [29],286 MFI
same,fluorescence intensity,[11]; [22],23 MFI
same,fluorescence intensity,[11]; [23],22 MFI
same,fluorescence intensity,[11]; [24],22 MFI
same,fluorescence intensity,[11]; [25],24 MFI
same,fluorescence intensity,[11]; [26],23 MFI
same,fluorescence intensity,[11]; [27],22 MFI
same,fluorescence intensity,[11]; [28],30 MFI
same,fluorescence intensity,[11]; [29],124 MFI
same,fluorescence intensity,[12]; [22],13 MFI
same,fluorescence intensity,[12]; [23],14 MFI
3S41.4 (protein) chain 1: EVQLVESGGGLVQPGGSLRLSCATSGFTFSNYWMYWFRQAPGKGLEWVSTISGSSTNTYYSGSVKGRFTISRDNAKNTLYLQMNSLRAEDTAVYYCARRGTDSSHWYFDLWGPGTPITVSS chain 2: EIVMTQSPATLSLSPGERATLSCRASQSVSSNLAWYQQKPGQGPRLLIYDASNRATGIPDRFGGSGSGTDFTLTISSLEPEDVGVYYCQQESNWPLTFGGGTKVEIK,fluorescence intensity,[13]; [24],20 MFI
same,fluorescence intensity,[13]; [25],20.2 MFI
same,fluorescence intensity,[13]; [26],19 MFI
same,fluorescence intensity,[13]; [27],23.5 MFI
same,fluorescence intensity,[13]; [28],42.5 MFI
same,fluorescence intensity,[13]; [29],183 MFI
same,fluorescence intensity,[14]; [22],16.2 MFI
same,fluorescence intensity,[14]; [23],14.5 MFI
same,fluorescence intensity,[14]; [24],17 MFI
same,fluorescence intensity,[14]; [25],16.2 MFI
same,fluorescence intensity,[14]; [26],14 MFI
same,fluorescence intensity,[14]; [27],13.5 MFI
same,fluorescence intensity,[14]; [28],20.2 MFI
same,fluorescence intensity,[14]; [29],54.2 MFI
same,fluorescence intensity,[15]; [22],16 MFI
same,fluorescence intensity,[15]; [23],14.5 MFI
same,fluorescence intensity,[15]; [24],15.5 MFI
same,fluorescence intensity,[15]; [25],16 MFI
same,fluorescence intensity,[15]; [26],14.2 MFI
same,fluorescence intensity,[15]; [27],17.5 MFI
same,fluorescence intensity,[15]; [28],20.5 MFI
same,fluorescence intensity,[15]; [29],45.5 MFI
same,fluorescence intensity,[16]; [22],15 MFI
same,fluorescence intensity,[16]; [23],14.5 MFI
same,fluorescence intensity,[16]; [24],13 MFI
same,fluorescence intensity,[16]; [25],14 MFI
same,fluorescence intensity,[16]; [26],15.5 MFI
same,fluorescence intensity,[16]; [27],15.5 MFI
same,fluorescence intensity,[16]; [28],24.5 MFI
same,fluorescence intensity,[16]; [29],102 MFI
same,fluorescence intensity,[17]; [22],21.5 MFI
same,fluorescence intensity,[17]; [23],21.5 MFI
same,fluorescence intensity,[17]; [24],21 MFI
same,fluorescence intensity,[17]; [25],21 MFI
same,fluorescence intensity,[17]; [26],22.5 MFI
same,fluorescence intensity,[17]; [27],23.5 MFI
same,fluorescence intensity,[17]; [28],29 MFI
same,fluorescence intensity,[17]; [29],50 MFI
same,fluorescence intensity,[18]; [22],20.5 MFI
same,fluorescence intensity,[18]; [23],18.5 MFI
same,fluorescence intensity,[18]; [24],19.2 MFI
same,fluorescence intensity,[18]; [25],19 MFI
same,fluorescence intensity,[18]; [26],18 MFI
same,fluorescence intensity,[18]; [27],19.8 MFI
same,fluorescence intensity,[18]; [28],24.5 MFI
same,fluorescence intensity,[18]; [29],58.2 MFI
same,fluorescence intensity,[19]; [22],18 MFI
same,fluorescence intensity,[19]; [23],16.8 MFI
same,fluorescence intensity,[19]; [24],16.5 MFI
same,fluorescence intensity,[19]; [25],18 MFI
same,fluorescence intensity,[19]; [26],18.5 MFI
same,fluorescence intensity,[19]; [27],16.5 MFI
same,fluorescence intensity,[19]; [28],21.5 MFI
same,fluorescence intensity,[19]; [29],43 MFI
same,fluorescence intensity,[20]; [22],15.5 MFI
same,fluorescence intensity,[20]; [23],15.8 MFI
same,fluorescence intensity,[20]; [24],16 MFI
same,fluorescence intensity,[20]; [25],15.5 MFI
same,fluorescence intensity,[20]; [26],15.2 MFI
same,fluorescence intensity,[20]; [27],17 MFI
same,fluorescence intensity,[20]; [28],21.5 MFI
same,fluorescence intensity,[20]; [29],40.5 MFI
same,fluorescence intensity,[21]; [22],13.5 MFI
same,fluorescence intensity,[21]; [23],15 MFI
same,fluorescence intensity,[21]; [24],14 MFI
same,fluorescence intensity,[21]; [25],13.5 MFI
same,fluorescence intensity,[21]; [26],14.5 MFI
same,fluorescence intensity,[21]; [27],15 MFI
same,fluorescence intensity,[21]; [28],18 MFI
same,fluorescence intensity,[21]; [29],26 MFI

# Part of the list above in a different format:
binder	measurement	setting	value
3S41.4 (protein) chain 1: EVQLVESGGGLVQPGGSLRLSCATSGFTFSNYWMYWFRQAPGKGLEWVSTISGSSTNTYYSGSVKGRFTISRDNAKNTLYLQMNSLRAEDTAVYYCARRGTDSSHWYFDLWGPGTPITVSS chain 2: EIVMTQSPATLSLSPGERATLSCRASQSVSSNLAWYQQKPGQGPRLLIYDASNRATGIPDRFGGSGSGTDFTLTISSLEPEDVGVYYCQQESNWPLTFGGGTKVEIK	fluorescence intensity	[17]; [28]	29 MFI
same	fluorescence intensity	[17]; [29]	50 MFI
same	fluorescence intensity	[18]; [22]	20.5 MFI
same	fluorescence intensity	[18]; [23]	18.5 MFI

# Some of the entries above in a different format.
binder | measurement | setting | value
4-127.2 (protein) chain 1: QVQLQESGPGLVKPSETLSLTCAVSGYSVNSGHGWTWIRQSPGKGLEWIGYIGGGSGSSNYNPSLKSRVTISKDTSNNQLSLKLRSLTTADTAMYYCARRVPADRSGNDYWGQGVLVTVSS chain 2: QSVLTQPPSVSGDPGQRVTISCTGSSSNIGDYYGYWYQQFPGTAPKLLIFDDNNRPSGISDRFSGSKAGTSASLTITGLQPGDEADYYCGAWDGSLNAHVFGSGTKLTVL | fluorescence intensity | [11]; [26] | 23 MFI
3S41.4 (protein) chain 1: EVQLVESGGGLVQPGGSLRLSCATSGFTFSNYWMYWFRQAPGKGLEWVSTISGSSTNTYYSGSVKGRFTISRDNAKNTLYLQMNSLRAEDTAVYYCARRGTDSSHWYFDLWGPGTPITVSS chain 2: EIVMTQSPATLSLSPGERATLSCRASQSVSSNLAWYQQKPGQGPRLLIYDASNRATGIPDRFGGSGSGTDFTLTISSLEPEDVGVYYCQQESNWPLTFGGGTKVEIK | fluorescence intensity | [20]; [23] | 15.8 MFI
same | fluorescence intensity | [21]; [23] | 15 MFI
